Experimental data: patent publication US20250304585A1, “SULFAMATE BASED COVALENT LIGAND-DIRECTED RELEASE (COLDR) COMPOUNDS” (priority 2022, published 2025)
At least one compound was matched to its structure with a doubt left.

Sequences of proteins named here, by UniProt entry; tags and fusion partners are left off. A change or cut given only in a name is not applied to a line headed by its entry.
UniProt Q06187: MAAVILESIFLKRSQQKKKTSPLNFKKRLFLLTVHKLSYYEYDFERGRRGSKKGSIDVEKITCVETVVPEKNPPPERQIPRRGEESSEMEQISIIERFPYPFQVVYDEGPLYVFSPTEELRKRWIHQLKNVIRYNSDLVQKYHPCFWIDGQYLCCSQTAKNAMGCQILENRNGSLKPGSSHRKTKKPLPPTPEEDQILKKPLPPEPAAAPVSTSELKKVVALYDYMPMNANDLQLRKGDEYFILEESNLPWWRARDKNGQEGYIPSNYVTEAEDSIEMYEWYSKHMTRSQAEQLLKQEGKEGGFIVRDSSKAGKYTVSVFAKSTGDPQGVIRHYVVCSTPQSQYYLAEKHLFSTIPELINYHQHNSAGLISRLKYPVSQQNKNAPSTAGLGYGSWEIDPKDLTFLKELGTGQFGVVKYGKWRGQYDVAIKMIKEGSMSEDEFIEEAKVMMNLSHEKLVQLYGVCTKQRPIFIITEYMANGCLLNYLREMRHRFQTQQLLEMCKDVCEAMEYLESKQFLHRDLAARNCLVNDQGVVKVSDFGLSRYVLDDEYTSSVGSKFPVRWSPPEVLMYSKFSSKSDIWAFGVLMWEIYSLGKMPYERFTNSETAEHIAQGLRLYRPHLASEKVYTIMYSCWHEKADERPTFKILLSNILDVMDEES

Target: BTK (Homo sapiens (Human), UniProt Q06187)
Assay: Fluorescence turn-on release with BTK
Type: biochemical
Settings: 2 μM compound, 2 μM BTK, pH 8, 435 nm

Nc1ncnc2c1c(-c1ccc(Oc3ccccc3)cc1)nn2[C@@H]1CCCN(C(=O)COS(=O)(=O)Nc2ccc3c(C(F)(F)F)cc(=O)oc3c2)C1 [Compound 3h]
increase in fluorescence in the presence of BTK: 4 fold
